Data source: PubChem BioAssay AID1259254 (NCATS, 2017)
Here is a random part of about 59,000 reagents tested. About 1,550 of them (2.6%) were called active. 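G2 share is only a proxy for re-replication; each gene was hit by three separate siRNAs, and active genes were retested.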 Reagents against one gene are numbered here. Not all columns of the deposit are shown. No sequences are given here. Not given: the amount of reagent.

Assay: 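Gene knock-downs that lead to re-replication, shown by excess G2 DNA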 (primary screen)
Cells: human HCT116 colorectal cancer cells
Knock-down reagent: single siRNA against human genes
Time to read-out: 3 days
Detection: 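Imaged Hoechst DNA stain sorts each cell into a cycle phase by DNA amount; per plate, G2 fraction set to 0% for non-targeting and 100% for GMNN siRNA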
Scale: G2 robust z-score: higher = more G2 cells, more excess DNA replication
Active means: 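Active siRNAs have a G2 robust z of 5 or more median absolute deviations over the median, which in these data means about 38% or higher of GMNN control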

{"gene": "CAMK2D (GeneID 817)", "reagent": 1, "G2 robust z-score": -1.14, "Call": "inactive"}
{"gene": "CAMK2D (GeneID 817)", "reagent": 2, "G2 robust z-score": -0.584, "Call": "inactive"}
{"gene": "CAMK2D (GeneID 817)", "reagent": 3, "G2 robust z-score": -0.694, "Call": "inactive"}
{"gene": "SCRG1 (GeneID 11341)", "reagent": 1, "G2 robust z-score": 0.801, "Call": "inactive"}
{"gene": "SCRG1 (GeneID 11341)", "reagent": 2, "G2 robust z-score": -0.309, "Call": "inactive"}
{"gene": "SCRG1 (GeneID 11341)", "reagent": 3, "G2 robust z-score": 0.384, "Call": "inactive"}
{"gene": "B9D1 (GeneID 27077)", "reagent": 1, "G2 robust z-score": 1.07, "Call": "inactive"}
{"gene": "B9D1 (GeneID 27077)", "reagent": 2, "G2 robust z-score": -0.332, "Call": "inactive"}
{"gene": "B9D1 (GeneID 27077)", "reagent": 3, "G2 robust z-score": 6.84, "Call": "active"}
{"gene": "ZNF662 (GeneID 389114)", "reagent": 1, "G2 robust z-score": -0.626, "Call": "inactive"}
{"gene": "ZNF662 (GeneID 389114)", "reagent": 2, "G2 robust z-score": -0.0456, "Call": "inactive"}
{"gene": "ZNF662 (GeneID 389114)", "reagent": 3, "G2 robust z-score": -0.634, "Call": "inactive"}
{"gene": "FOLR2 (GeneID 2350)", "reagent": 1, "G2 robust z-score": 2, "Call": "inactive"}
{"gene": "FOLR2 (GeneID 2350)", "reagent": 2, "G2 robust z-score": -0.213, "Call": "inactive"}
{"gene": "FOLR2 (GeneID 2350)", "reagent": 3, "G2 robust z-score": -0.518, "Call": "inactive"}
{"gene": "ALOXE3 (GeneID 59344)", "reagent": 1, "G2 robust z-score": -1.5, "Call": "inactive"}
{"gene": "ALOXE3 (GeneID 59344)", "reagent": 2, "G2 robust z-score": 2.92, "Call": "inactive"}
{"gene": "ALOXE3 (GeneID 59344)", "reagent": 3, "G2 robust z-score": -1.12, "Call": "inactive"}
{"gene": "MTIF3 (GeneID 219402)", "reagent": 1, "G2 robust z-score": -0.386, "Call": "inactive"}
{"gene": "MTIF3 (GeneID 219402)", "reagent": 2, "G2 robust z-score": -0.391, "Call": "inactive"}
{"gene": "MTIF3 (GeneID 219402)", "reagent": 3, "G2 robust z-score": 1.81, "Call": "inactive"}
{"gene": "SUGT1 (GeneID 10910)", "reagent": 1, "G2 robust z-score": -0.773, "Call": "inactive"}
{"gene": "SUGT1 (GeneID 10910)", "reagent": 2, "G2 robust z-score": -0.601, "Call": "inactive"}
{"gene": "SUGT1 (GeneID 10910)", "reagent": 3, "G2 robust z-score": -0.264, "Call": "inactive"}

Part of the list above, set out differently:
SCRG1 (GeneID 11341) #2
- G2 robust z-score: -0.309
- Call: inactive

SCRG1 (GeneID 11341) #3
- G2 robust z-score: 0.384
- Call: inactive
